Source: US5506354A, “Imidazolylpiperazinyl steroids” (The Upjohn Company, priority 1992, dated 1996)
Some entries share one result that the patent states for a list of compounds.

The molecules below were run on angiogenesis (assay: Chick embryo assay of Folkman (inhibition of angiogenesis / tumor growth)). Conditions: 50 μg/10 μl in the presence of heparin.
Format: in vivo
Experimental: According to this procedure compounds which are considered to be "active" (i.e. antiangiogenic) give an avascular zone of 4 mm or greater in some embryos when tested at 50 μg/10 μl in the presence of 50 μg/10μ of heparin.

SMILES	inhibition of angiogenesis (activity in words)
CCN(CC)c1cc(N2CCN(CC(=O)[C@@]3(O)[C@H](C)C[C@H]4[C@@H]5CCC6=CC(=O)C=C[C@]6(C)C5=CC[C@@]43C)CC2)nc(N(CC)CC)n1.Cl.O [Example 18, 21-[4-[2,6-Bis(diethylamino)-4-pyrimidinyl]-1-piperazinyl]-17α-hydroxy-16α-methylpregna-1,4,9(11)-triene-3,20-dione hydrochloride hydrate]	demonstrate inhibition of angiogenesis
Cc1nnc(N2CCN(CC(=O)[C@@]3(O)CC[C@H]4[C@@H]5CCC6=CC(=O)CC[C@]6(C)C5=CC[C@@]43C)CC2)n1-c1ccccc1.Cl.Cl.O [Example 48, 17α-hydroxy-21-[4-[(5-methyl)-4-phenyl-4H-1,2,4-triazol-3-yl]-1-piperazinyl]pregna-4,9(11)-diene-3,20-dione dihydrochloride hydrate]	demonstrate inhibition of angiogenesis
CS(=O)(=O)O.C[C@]12CCC(=O)C=C1CC[C@@H]1C2=CC[C@@]2(C)[C@H]1CC[C@]2(O)C(=O)CN1CCN(c2ccccn2)CC1 [Example 2, 17α-Hydroxy-21-[4-(2-pyridinyl)-1-piperazinyl]pregna-4,9(11)-diene-3,20-dione methanesulfonate]	demonstrate inhibition of angiogenesis
C[C@]12CCC(=O)C=C1CC[C@@H]1[C@@H]2CC[C@@]2(C)[C@H]1CC[C@]2(O)C(=O)CN1CCN(c2ccccn2)CC1.Cl.Cl.O [Example 43, 17α-hydroxy-21-[4-(2-pyridinyl)-1-piperazinyl]pregn-4-ene-3,20-dione dihydrochloride hydrate]	demonstrate inhibition of angiogenesis
C[C@]12CCC(=O)C=C1CC[C@@H]1C2=CC[C@@]2(C)[C@H]1CC[C@]2(O)C(=O)CN1CCN(c2ccccn2)CC1.Cl [Example 3, 17α-Hydroxy-21-[4-(2-pyridinyl)-1-piperazinyl]pregna-4,9(11)-diene-3,20-dione hydrogen chloride salt]	demonstrate inhibition of angiogenesis
C[C@]12CC[C@H]3[C@@H](CCC4=CC(=O)CC[C@@]43C)[C@@H]1CC[C@@H]2C(=O)CN1CCN(c2ccccn2)CC1.Cl.Cl.O [Example 40, 21-[4-(2-pyridinyl)-1-piperazinyl]pregn-4-ene-3,20-dione dihydrochloride hydrate]	demonstrate inhibition of angiogenesis
C[C@]12CC(=O)[C@H]3[C@@H](CCC4=CC(=O)CC[C@@]43C)[C@@H]1CC[C@@H]2C(=O)CN1CCN(c2ccccn2)CC1.Cl.O [Example 45, 21-[4-(2-pyridinyl)-1-piperazinyl]pregn-4-ene-3,11,20-trione hydrochloride hydrate]	demonstrate inhibition of angiogenesis
COc1ccccc1N1CCN(CC(=O)[C@@]2(O)CC[C@H]3[C@@H]4CCC5=CC(=O)CC[C@]5(C)[C@H]4CC[C@@]32C)CC1.Cl.Cl.O [Example 41, 17α-hydroxy-21-[4-(2-methoxyphenyl)-1-piperazinyl]pregn-4-ene-3,20-dione dihydrochloride hydrate]	demonstrate inhibition of angiogenesis
